The list shows a part of the results.
Key:
Assay in all cases: log2 fold change, soluble protein after heating vs DMSO (PISA); higher = thermal stabilisation; K562 cells, 10 uM, 30 min; active = over 0.2 and 3.5 SD of the protein, either way, in both replicates (recomputed)
erlotinib = compound: C#Cc1cccc(Nc2ncnc3cc(OCCOC)c(OCCOC)cc23)c1 [erlotinib]
Procedure, shortened: (§1)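 Values are thermal stability changes relative to control samples and are taken from duplicates. They are stated as log2 fold changes. Before quantification by TMTpro 16plex LC-MS/MS with equalised channel sums, K562 cells at 2×10^6 cells/mL were treated with 10 μM compound for 30 min, heated in aliquots for 3 min across 48°C-58°C, pooled, extracted in PBS with 0.5% NP-40 at 4°C, and centrifuged at 21,000xg for 90 min to give the soluble supernatant.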

By UniProt entry, the sequences of proteins in these tests, tags left out. Where a name states a change or a piece, a line headed by the entry shows the natural chain unless it says otherwise.
UniProt P35221: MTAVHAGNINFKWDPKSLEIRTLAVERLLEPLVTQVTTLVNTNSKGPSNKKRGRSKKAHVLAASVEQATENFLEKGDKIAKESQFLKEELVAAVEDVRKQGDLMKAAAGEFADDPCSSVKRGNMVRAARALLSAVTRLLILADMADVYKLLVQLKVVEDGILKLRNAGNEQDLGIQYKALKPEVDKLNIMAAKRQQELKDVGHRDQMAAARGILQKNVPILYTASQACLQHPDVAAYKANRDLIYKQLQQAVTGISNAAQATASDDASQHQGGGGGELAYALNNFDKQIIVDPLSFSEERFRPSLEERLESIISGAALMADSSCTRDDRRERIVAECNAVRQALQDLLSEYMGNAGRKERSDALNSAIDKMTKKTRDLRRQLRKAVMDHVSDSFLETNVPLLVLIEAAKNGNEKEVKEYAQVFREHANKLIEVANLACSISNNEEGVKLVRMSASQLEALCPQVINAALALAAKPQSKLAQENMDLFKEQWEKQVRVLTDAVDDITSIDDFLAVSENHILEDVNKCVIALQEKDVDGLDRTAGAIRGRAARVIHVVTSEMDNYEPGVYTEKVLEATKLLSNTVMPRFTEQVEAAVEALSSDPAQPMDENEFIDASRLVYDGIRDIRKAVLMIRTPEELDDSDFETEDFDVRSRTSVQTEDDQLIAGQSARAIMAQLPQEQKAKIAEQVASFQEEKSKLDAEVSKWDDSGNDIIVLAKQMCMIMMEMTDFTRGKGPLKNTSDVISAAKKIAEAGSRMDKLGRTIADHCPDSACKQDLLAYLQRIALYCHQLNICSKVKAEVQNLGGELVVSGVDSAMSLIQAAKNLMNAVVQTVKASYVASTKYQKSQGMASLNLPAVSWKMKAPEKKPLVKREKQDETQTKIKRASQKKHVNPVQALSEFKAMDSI
UniProt O60716: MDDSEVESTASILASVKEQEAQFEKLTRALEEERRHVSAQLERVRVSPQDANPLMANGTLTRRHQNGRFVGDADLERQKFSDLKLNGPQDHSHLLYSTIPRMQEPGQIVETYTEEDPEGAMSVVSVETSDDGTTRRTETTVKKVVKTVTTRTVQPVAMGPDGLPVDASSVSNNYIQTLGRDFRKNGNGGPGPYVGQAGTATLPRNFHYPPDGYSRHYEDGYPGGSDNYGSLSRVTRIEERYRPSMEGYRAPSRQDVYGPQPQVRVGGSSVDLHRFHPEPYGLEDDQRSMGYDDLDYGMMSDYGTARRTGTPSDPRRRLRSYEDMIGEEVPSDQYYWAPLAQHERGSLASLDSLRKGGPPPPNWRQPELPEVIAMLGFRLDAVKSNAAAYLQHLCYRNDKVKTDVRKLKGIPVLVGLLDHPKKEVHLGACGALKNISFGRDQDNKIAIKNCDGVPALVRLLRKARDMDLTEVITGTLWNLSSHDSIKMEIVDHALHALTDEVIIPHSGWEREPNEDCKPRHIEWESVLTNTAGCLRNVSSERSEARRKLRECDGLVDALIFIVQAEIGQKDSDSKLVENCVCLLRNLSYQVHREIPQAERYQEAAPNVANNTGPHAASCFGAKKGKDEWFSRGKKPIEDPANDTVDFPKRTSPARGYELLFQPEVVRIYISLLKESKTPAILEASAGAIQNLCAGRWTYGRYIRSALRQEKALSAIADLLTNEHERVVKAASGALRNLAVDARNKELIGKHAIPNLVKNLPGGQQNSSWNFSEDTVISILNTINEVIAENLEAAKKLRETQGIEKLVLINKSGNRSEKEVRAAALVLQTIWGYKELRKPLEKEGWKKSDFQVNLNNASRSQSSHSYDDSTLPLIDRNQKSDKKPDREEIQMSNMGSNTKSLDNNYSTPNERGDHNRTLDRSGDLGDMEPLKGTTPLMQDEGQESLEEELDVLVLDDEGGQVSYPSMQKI
UniProt Q69YN2: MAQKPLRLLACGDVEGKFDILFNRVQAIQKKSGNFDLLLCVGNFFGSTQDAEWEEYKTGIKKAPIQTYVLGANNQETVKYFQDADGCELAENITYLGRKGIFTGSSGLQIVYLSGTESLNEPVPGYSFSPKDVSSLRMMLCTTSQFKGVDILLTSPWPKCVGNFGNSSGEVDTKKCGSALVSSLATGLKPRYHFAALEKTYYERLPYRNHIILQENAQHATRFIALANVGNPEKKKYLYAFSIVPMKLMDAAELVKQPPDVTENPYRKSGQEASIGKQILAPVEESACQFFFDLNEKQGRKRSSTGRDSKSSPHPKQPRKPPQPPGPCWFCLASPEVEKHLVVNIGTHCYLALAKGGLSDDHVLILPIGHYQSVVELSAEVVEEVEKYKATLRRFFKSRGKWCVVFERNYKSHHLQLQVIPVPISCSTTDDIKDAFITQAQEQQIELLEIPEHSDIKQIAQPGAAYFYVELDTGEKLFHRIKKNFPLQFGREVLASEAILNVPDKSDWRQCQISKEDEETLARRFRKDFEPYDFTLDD
UniProt P17812: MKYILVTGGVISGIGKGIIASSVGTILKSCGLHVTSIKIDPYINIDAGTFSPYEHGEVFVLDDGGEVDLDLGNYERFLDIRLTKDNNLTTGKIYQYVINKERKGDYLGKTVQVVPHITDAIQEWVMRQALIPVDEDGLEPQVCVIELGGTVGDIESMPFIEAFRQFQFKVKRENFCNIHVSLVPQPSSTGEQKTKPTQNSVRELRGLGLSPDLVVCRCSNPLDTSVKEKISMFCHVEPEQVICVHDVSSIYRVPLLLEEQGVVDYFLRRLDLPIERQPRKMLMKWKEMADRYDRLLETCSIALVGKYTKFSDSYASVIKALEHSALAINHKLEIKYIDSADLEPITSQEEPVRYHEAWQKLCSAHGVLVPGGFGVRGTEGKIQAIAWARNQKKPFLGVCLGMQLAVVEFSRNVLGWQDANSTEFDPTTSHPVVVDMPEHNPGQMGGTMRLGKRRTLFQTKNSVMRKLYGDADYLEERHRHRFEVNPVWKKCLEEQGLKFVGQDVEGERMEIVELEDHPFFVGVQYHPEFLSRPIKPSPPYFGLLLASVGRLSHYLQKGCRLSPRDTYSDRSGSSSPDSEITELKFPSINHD
UniProt Q8TEB1, whole entry, looked up: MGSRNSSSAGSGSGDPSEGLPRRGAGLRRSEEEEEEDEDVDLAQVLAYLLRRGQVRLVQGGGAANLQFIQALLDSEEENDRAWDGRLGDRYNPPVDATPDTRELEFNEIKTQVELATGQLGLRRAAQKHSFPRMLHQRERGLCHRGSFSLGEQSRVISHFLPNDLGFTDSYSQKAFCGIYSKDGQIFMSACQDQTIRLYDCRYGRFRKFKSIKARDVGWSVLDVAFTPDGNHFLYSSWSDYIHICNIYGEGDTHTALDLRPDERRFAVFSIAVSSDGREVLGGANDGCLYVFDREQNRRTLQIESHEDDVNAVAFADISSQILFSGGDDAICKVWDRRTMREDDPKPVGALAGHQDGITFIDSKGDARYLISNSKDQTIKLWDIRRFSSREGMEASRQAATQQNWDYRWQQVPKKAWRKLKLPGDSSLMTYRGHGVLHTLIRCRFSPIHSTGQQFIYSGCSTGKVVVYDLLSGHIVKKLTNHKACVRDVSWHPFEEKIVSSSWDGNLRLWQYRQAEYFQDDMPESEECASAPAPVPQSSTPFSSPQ
UniProt P33240: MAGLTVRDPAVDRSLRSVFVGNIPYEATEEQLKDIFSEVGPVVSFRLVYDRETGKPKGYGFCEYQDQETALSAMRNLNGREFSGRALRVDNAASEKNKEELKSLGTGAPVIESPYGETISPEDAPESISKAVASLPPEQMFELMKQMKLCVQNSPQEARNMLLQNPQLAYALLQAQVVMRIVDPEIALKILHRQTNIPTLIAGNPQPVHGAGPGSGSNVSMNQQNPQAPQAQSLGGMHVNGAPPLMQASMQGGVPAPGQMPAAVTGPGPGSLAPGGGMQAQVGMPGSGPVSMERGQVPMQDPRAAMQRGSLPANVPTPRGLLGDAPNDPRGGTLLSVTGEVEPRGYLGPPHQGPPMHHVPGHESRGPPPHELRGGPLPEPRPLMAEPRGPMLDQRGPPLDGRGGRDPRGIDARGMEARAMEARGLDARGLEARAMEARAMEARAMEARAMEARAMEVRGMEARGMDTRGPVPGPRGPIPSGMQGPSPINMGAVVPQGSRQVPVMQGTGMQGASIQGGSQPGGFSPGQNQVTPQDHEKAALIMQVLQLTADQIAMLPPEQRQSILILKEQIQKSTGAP
UniProt E9PJD7, whole entry, looked up: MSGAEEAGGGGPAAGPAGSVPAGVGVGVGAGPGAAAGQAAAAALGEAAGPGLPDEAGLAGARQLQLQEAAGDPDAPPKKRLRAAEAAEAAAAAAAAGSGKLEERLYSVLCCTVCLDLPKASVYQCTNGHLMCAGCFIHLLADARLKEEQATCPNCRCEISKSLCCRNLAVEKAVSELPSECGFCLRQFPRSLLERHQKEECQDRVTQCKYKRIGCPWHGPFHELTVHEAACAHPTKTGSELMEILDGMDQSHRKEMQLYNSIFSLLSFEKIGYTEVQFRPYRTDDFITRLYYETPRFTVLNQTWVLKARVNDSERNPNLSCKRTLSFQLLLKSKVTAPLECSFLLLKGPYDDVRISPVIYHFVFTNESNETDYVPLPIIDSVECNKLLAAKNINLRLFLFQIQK
UniProt O60911: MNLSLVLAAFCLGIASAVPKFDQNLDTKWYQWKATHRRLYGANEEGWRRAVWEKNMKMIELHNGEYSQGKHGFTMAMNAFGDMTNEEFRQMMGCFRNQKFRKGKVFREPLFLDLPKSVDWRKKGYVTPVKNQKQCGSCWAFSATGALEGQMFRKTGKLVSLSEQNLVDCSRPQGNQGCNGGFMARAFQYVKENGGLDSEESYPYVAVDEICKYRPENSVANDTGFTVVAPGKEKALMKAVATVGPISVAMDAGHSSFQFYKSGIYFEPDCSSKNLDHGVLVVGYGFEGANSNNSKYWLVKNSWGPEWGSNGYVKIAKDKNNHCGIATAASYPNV
UniProt Q9H467: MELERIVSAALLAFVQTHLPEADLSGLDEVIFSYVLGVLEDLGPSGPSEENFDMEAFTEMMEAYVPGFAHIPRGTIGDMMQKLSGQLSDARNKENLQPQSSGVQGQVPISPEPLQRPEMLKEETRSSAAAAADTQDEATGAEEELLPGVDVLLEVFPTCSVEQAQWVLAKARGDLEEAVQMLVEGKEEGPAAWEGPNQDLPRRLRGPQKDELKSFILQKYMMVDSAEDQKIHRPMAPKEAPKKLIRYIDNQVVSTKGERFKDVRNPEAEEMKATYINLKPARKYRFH
UniProt Q96C86: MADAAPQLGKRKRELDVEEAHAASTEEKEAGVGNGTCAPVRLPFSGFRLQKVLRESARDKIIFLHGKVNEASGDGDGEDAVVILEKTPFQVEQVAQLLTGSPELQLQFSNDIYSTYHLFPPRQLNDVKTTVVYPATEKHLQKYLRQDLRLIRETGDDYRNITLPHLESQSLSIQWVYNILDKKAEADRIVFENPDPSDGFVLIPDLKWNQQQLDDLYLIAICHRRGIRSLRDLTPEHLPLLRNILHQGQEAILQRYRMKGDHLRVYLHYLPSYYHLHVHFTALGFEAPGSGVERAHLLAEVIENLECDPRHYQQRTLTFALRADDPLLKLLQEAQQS
UniProt Q12996: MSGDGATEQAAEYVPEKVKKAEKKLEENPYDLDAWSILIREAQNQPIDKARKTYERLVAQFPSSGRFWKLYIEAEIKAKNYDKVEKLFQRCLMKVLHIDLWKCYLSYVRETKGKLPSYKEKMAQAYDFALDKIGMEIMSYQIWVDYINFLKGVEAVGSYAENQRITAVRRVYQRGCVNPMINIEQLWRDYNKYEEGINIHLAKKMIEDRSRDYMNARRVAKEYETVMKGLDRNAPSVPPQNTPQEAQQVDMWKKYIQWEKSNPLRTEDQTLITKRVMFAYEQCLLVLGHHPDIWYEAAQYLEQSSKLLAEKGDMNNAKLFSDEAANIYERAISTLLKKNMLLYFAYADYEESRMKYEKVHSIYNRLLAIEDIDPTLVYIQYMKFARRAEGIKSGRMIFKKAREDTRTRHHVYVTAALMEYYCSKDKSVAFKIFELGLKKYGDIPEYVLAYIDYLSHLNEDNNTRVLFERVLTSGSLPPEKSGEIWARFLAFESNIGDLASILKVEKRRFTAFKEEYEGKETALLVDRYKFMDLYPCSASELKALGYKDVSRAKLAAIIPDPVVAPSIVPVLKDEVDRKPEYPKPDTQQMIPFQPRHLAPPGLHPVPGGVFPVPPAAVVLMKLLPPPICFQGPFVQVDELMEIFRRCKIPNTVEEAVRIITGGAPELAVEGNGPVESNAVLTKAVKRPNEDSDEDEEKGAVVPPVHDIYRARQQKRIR
UniProt P09668: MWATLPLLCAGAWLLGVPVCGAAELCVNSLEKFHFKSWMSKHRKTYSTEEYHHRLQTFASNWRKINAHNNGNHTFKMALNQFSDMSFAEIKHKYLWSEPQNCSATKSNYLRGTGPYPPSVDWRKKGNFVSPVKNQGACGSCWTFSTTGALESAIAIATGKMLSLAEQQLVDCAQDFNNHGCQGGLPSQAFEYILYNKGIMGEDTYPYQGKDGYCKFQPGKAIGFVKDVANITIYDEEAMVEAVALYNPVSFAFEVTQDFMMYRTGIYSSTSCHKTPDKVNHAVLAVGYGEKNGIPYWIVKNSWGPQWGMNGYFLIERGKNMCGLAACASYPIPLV

[1] = compound: C/C(=N\NC(=O)C1=CC(=CC=C1)S(=O)(=O)N2CCOCC2)/C3=C(C=CC(=C3)Cl)O
Procedure, shortened: as §1

[2] = compound: C1=CC(=C(C=C1Cl)C2=NC3=NC=CN=C3C(=N2)NC4=CC=NC=C4)F
Procedure, shortened: as §1

[3] = compound: C1=CC(=CC=C1C2=NC3=C(N2)C=C(C=C3)C(=O)N)OC4=CC=C(C=C4)Cl
Procedure, shortened: as §1

[4] = compound: C1=CC2=C(C=CC(=C2)/C=C\3/C(=O)NC(=NCC4=CC=CS4)S3)N=C1
Procedure, shortened: as §1

[5] = compound: C1=CC2=NC=CN=C2C=C1/C=C/3\C(=O)NC(=O)S3
Procedure, shortened: as §1

[6] = compound: C1=CC=C(C=C1)C2=NC(=C(N2)C3=CC=NC=C3)C4=CC(=C(C=C4)Cl)O
Procedure, shortened: as §1

[7] = compound: C1=CC=C2C(=C1)C3=NNC4=CC=CC(=C43)C2=O
Procedure, shortened: as §1

[8] = compound: C1CCN(C1)C(=O)NC2=CC=CC(=C2)NC3=NC=C(C(=N3)NCCC4=CN=CN4)Br
Procedure, shortened: as §1

[9] = compound: C1CN(CCC1(CC2=CC=C(C=C2)Cl)N)C3=NC=NC4=C3C=CN4
Procedure, shortened: as §1

Measured: log2 fold change

CTBS (UniProt Q01459)
inactive: erlotinib 0.037 | [1] -0.008 | [2] -0.1 | [3] -0.023 | [4] 0.039 | [5] 0.013 | [6] -0.089 | [7] -0.002 | [8] -0.083 | [9] 0.048

CYP20A1 (UniProt Q6UW02)
inactive: erlotinib 0.008 | [1] 0.023 | [2] 0.061 | [3] 0.004 | [4] 0.035 | [5] 0.082 | [6] -0.03 | [7] 0.038 | [8] -0.007 | [9] 0.046

CTNNA1 isoform 2 (UniProt P35221)
inactive: erlotinib -0.024 | [1] 0.01 | [2] 0.047 | [3] 0.017 | [4] 0.017 | [5] -0.001 | [6] 0.019 | [7] -0.004 | [8] -0.025 | [9] 0.048

DCP1A (UniProt Q9NPI6)
inactive: erlotinib 0.008 | [1] 0.019 | [2] -0.036 | [3] 0.002 | [4] 0.048 | [5] 0.022 | [6] 0.032 | [7] 0.093 | [8] -0.026 | [9] -0.22

CYB5R3 isoform 3 (UniProt P00387)
inactive: erlotinib 0.024 | [1] 0.017 | [2] 0.039 | [3] -0.039 | [4] 0.038 | [5] 0.013 | [6] -0.008 | [7] -0.025 | [8] 0.045 | [9] 0.01

CWC25 (UniProt Q9NXE8)
inactive: erlotinib -0.056 | [1] -0.27 | [2] -0.557 | [3] 0.209 | [4] -0.139 | [5] -0.028 | [6] -0.134 | [7] -0.033 | [8] 0.058 | [9] 0.053

CTNND1 (UniProt O60716)
inactive: erlotinib -0.029 | [1] -0.037 | [2] -0.332 | [3] -0.104 | [4] -0.04 | [5] -0.003 | [6] 0.006 | [7] -0.027 | [8] 0.004 | [9] -0.094

CWF19L1 (UniProt Q69YN2)
inactive: erlotinib -0.072 | [1] 0.011 | [2] 0.028 | [3] 0.004 | [4] 0.008 | [5] 0.03 | [6] -0.042 | [7] -0.044 | [8] -0.01 | [9] 0.049

CTPS1 (UniProt P17812)
inactive: erlotinib 0.006 | [1] 0.006 | [2] 0.072 | [3] 0.007 | [4] 0.005 | [5] 0.019 | [6] -0.024 | [7] -0.013 | [8] 0.02 | [9] 0.05

DAG1 (UniProt Q14118)
inactive: erlotinib 0.055 | [1] 0.067 | [2] -0.043 | [3] 0 | [4] -0.038 | [5] -0.037 | [6] -0.154 | [7] -0.06 | [8] -0.009 | [9] 0.035

DCAF11 (UniProt Q8TEB1)
inactive: erlotinib 0.019 | [1] -0.003 | [2] 0.05 | [3] 0.033 | [4] 0.14 | [5] 0.051 | [6] -0.039 | [7] -0.067 | [8] -0.037 | [9] -0.01

CSTF2 (UniProt P33240)
inactive: erlotinib 0.032 | [1] -0.002 | [2] -0.011 | [3] 0.017 | [4] 0.017 | [5] 0.051 | [6] -0.076 | [7] 0.023 | [8] 0.033 | [9] -0.061

CYHR1 (UniProt E9PJD7)
inactive: erlotinib 0.004 | [1] -0.02 | [2] 0.081 | [3] 0 | [4] 0.011 | [5] 0.057 | [6] -0.044 | [7] -0.033 | [8] 0.096 | [9] 0.022

CTSZ (UniProt Q9UBR2)
inactive: erlotinib 0.053 | [1] -0.025 | [2] 0.027 | [3] -0.047 | [4] -0.013 | [5] 0.023 | [6] -0.017 | [7] 0.073 | [8] 0.057 | [9] 0.09

CTSL (UniProt P07711)
inactive: erlotinib -0.005 | [1] -0.173 | [2] -0.036 | [3] -0.022 | [4] -0.203 | [5] 0.019 | [6] -0.002 | [7] -0.041 | [8] -0.023 | [9] 0.005

DCAF8 (UniProt Q5TAQ9)
inactive: erlotinib -0.041 | [1] -0.017 | [2] 0.012 | [3] 0.062 | [4] 0.024 | [5] 0.002 | [6] 0.006 | [7] 0.073 | [8] -0.015 | [9] 0.001

DCAF6 isoform 3 (UniProt Q58WW2)
inactive: erlotinib 0.035 | [1] 0 | [2] 0.035 | [3] 0.014 | [4] 0.007 | [5] 0.045 | [6] 0.008 | [7] -0.036 | [8] 0.042 | [9] 0.055

CTSV (UniProt O60911)
inactive: erlotinib 0.043 | [1] -0.105 | [2] 0.023 | [3] -0.054 | [4] 0.035 | [5] -0.004 | [6] 0.024 | [7] 0.023 | [8] 0.04 | [9] 0.022

CUEDC2 (UniProt Q9H467)
inactive: erlotinib 0.016 | [1] -0.023 | [2] 0.047 | [3] 0.023 | [4] -0.021 | [5] 0.117 | [6] -0.074 | [7] 0.008 | [8] -0.071 | [9] -0.006

DCPS (UniProt Q96C86)
inactive: erlotinib 0.03 | [1] 0.032 | [2] 0.017 | [3] 0.007 | [4] -0.035 | [5] 0.003 | [6] -0.033 | [7] -0.009 | [8] 0.039 | [9] 0.06

CUTC (UniProt Q9NTM9)
inactive: erlotinib -0.053 | [1] -0.013 | [2] -0.04 | [3] 0.033 | [4] 0.115 | [5] -0.022 | [6] -0.01 | [7] -0.063 | [8] -0.03 | [9] 0.047

CT45A5 (UniProt P0DMU8)
inactive: erlotinib -0.081 | [1] -0.116 | [2] -0.198 | [3] 0.035 | [4] -0.059 | [5] 0.015 | [6] 0.101 | [7] 0.027 | [8] 0.065 | [9] -0.097

CYB5R2 (UniProt Q6BCY4)
inactive: erlotinib 0.055 | [1] -0.044 | [2] 0.05 | [3] 0.01 | [4] 0.038 | [5] 0.018 | [6] -0.072 | [7] -0.007 | [8] 0.04 | [9] -0.015

DAB2 (UniProt P98082)
inactive: erlotinib 0.107 | [1] 0.112 | [2] 0.01 | [3] -0.035 | [4] 0.037 | [5] 0.008 | [6] 0.002 | [7] 0.019 | [8] -0.156 | [9] -0.006

CTSC (UniProt P53634)
inactive: erlotinib -0.002 | [1] 0.016 | [2] 0.022 | [3] -0.031 | [4] 0.014 | [5] 0.004 | [6] 0.028 | [7] 0.009 | [8] -0.02 | [9] 0.138

DCK (UniProt P27707)
inactive: erlotinib 0.032 | [1] -0.013 | [2] 0.036 | [3] -0.029 | [4] -0.003 | [5] 0.023 | [6] 0.01 | [7] 0.023 | [8] -0.033 | [9] 0.057

Two entries drawn at random from those above:
CT45A5 (UniProt P0DMU8)
inactive: erlotinib -0.081 | [1] -0.116 | [2] -0.198 | [3] 0.035 | [4] -0.059 | [5] 0.015 | [6] 0.101 | [7] 0.027 | [8] 0.065 | [9] -0.097

CYB5R2 (UniProt Q6BCY4)
inactive: erlotinib 0.055 | [1] -0.044 | [2] 0.05 | [3] 0.01 | [4] 0.038 | [5] 0.018 | [6] -0.072 | [7] -0.007 | [8] 0.04 | [9] -0.015

More entries follow:

DAP3 (UniProt P51398)
inactive: erlotinib -0.065 | [1] -0.019 | [2] -0.139 | [3] 0.138 | [4] -0.061 | [5] -0.031 | [6] 0.014 | [7] 0.103 | [8] -0.03 | [9] -0.129

CWC15 (UniProt Q9P013)
inactive: erlotinib -0.01 | [1] -0.032 | [2] -0.004 | [3] 0.009 | [4] 0.006 | [5] 0.056 | [6] -0.025 | [7] -0.038 | [8] 0.013 | [9] -0.019

CSTF3 (UniProt Q12996)
inactive: erlotinib -0.038 | [1] 0.012 | [2] -0.003 | [3] 0.015 | [4] 0.014 | [5] 0.077 | [6] -0.032 | [7] 0.035 | [8] 0.027 | [9] -0.027

CTSH (UniProt P09668)
inactive: erlotinib 0.015 | [1] -0.054 | [2] 0.052 | [3] 0 | [4] -0.062 | [5] 0.048 | [6] 0.022 | [7] -0.011 | [8] 0.047 | [9] 0.057

— the supplement of paper PMC10849652
